Test results reported in the supplement of paper PMC12823440, “Inhibitors supercharge kinase turnover through native proteolytic circuits” (Nature, 2025).
Structures can show the parent of a compound that is named as a salt. This is one part of the list. Hit calls seldom repeat between salt and free forms of one compound.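 In K562 cells expressing nanoluciferase-fused kinases, luminescence was recorded at 4 h intervals between 2 and 18 h, normalized as percent of control with DMSO at 100% and a positive control at 0%. A significant (2 sigma) signal drop marks a time point as decreased. The authors' rule for a hit is not shown and takes in more than the number of time points.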

Chains of the proteins cited; added tags and fusions are not shown. Lines headed by an entry give the natural chain unless they say otherwise; changes in a name come on top.
UniProt P49840: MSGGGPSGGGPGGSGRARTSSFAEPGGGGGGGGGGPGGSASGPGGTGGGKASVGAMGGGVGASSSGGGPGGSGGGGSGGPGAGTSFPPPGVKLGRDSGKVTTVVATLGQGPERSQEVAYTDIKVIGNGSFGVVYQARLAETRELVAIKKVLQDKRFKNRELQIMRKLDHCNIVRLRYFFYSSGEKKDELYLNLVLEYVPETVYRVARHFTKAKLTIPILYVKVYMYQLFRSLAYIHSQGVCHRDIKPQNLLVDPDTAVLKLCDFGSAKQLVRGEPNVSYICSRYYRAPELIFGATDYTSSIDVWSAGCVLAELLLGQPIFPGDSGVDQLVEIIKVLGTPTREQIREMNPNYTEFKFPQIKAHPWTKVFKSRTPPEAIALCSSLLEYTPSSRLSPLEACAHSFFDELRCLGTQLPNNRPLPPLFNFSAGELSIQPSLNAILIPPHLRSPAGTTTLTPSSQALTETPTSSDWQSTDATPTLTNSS
UniProt Q9Y616: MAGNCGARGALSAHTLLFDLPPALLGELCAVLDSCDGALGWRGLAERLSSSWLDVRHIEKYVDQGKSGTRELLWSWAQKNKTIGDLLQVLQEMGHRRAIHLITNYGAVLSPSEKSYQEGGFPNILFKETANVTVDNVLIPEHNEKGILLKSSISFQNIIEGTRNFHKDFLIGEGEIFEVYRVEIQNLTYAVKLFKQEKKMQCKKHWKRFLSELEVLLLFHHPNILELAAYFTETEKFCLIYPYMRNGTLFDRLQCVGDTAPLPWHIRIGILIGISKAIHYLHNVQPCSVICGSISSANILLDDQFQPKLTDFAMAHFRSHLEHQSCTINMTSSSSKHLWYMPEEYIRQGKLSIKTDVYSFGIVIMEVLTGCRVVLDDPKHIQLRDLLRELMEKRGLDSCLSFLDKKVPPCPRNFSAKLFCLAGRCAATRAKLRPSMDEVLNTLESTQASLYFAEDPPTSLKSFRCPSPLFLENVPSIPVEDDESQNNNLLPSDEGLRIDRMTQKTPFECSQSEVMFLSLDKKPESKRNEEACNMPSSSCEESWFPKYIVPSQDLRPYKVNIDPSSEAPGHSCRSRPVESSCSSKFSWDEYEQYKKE
UniProt P53667: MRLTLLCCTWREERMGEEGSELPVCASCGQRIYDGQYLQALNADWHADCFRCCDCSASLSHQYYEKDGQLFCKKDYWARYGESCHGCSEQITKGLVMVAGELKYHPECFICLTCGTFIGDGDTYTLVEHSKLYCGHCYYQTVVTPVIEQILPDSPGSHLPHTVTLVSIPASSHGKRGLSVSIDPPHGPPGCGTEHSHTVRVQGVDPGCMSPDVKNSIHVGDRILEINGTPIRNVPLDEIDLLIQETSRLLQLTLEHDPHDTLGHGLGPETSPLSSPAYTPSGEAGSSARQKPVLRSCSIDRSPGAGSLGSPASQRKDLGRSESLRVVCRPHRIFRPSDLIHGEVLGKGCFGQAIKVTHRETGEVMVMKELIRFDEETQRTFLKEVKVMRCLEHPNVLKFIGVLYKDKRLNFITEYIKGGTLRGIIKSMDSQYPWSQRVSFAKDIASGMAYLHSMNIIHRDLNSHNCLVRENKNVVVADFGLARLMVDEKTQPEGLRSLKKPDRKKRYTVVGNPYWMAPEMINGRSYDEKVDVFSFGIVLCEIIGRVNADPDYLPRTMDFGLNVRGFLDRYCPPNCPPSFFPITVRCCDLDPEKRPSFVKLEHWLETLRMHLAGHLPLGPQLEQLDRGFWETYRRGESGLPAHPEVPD
UniProt P53671: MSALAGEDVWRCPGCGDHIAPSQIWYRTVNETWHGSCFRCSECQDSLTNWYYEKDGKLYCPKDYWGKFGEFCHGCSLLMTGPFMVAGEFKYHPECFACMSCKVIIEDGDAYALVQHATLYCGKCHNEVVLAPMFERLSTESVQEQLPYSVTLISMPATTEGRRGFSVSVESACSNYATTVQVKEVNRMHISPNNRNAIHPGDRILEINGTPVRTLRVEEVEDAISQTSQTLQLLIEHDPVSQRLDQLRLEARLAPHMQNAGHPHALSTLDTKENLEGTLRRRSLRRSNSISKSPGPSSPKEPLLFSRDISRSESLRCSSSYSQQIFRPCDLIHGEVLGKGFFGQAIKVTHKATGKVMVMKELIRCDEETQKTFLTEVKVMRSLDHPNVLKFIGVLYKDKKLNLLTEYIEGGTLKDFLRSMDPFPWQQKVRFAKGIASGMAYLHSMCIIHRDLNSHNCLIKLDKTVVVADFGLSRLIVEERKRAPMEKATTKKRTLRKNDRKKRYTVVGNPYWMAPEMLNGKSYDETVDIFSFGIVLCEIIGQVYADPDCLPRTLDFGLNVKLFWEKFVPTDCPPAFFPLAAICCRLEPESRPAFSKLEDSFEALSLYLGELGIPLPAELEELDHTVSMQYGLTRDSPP
UniProt Q12851: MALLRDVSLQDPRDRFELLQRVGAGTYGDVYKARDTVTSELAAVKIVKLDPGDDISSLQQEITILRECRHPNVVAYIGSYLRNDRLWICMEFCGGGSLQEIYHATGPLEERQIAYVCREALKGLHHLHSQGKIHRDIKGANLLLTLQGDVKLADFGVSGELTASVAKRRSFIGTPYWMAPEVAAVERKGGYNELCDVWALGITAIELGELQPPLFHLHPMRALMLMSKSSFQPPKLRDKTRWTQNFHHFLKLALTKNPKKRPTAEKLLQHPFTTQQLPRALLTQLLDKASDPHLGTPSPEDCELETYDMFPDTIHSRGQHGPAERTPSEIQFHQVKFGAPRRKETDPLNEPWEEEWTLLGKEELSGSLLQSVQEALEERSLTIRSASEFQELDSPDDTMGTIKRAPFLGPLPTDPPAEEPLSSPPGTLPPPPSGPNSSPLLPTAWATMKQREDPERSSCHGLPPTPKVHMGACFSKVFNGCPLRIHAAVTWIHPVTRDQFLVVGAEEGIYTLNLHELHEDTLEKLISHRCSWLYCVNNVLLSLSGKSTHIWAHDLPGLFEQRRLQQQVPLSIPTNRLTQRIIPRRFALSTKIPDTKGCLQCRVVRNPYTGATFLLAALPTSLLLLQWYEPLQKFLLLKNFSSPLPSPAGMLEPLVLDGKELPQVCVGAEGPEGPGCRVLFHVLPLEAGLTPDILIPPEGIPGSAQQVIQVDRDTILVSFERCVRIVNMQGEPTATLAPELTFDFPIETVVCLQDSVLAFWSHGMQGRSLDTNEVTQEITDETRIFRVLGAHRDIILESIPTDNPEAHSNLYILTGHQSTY
UniProt P11362, whole entry, looked up: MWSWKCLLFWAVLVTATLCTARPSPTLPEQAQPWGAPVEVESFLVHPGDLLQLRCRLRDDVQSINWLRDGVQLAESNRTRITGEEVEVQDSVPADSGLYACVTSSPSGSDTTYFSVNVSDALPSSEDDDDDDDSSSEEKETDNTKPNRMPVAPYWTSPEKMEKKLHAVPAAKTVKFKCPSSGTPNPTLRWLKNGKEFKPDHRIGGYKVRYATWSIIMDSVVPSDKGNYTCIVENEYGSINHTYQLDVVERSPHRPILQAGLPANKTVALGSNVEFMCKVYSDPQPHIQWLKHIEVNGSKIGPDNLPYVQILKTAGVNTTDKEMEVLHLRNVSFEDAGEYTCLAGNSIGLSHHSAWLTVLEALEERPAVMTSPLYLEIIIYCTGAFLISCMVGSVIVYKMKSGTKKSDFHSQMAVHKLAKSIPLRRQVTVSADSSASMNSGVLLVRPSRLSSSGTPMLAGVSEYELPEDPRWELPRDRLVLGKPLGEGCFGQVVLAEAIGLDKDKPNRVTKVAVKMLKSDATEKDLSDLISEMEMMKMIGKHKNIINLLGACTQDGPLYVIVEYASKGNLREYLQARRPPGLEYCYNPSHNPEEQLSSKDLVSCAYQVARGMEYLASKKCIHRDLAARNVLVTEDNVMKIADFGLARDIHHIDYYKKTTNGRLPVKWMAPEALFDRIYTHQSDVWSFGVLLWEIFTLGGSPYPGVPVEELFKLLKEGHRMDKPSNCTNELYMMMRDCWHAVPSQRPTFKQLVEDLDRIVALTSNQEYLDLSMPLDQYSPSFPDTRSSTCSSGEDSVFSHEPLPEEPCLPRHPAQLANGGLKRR
UniProt P21802, whole entry, looked up: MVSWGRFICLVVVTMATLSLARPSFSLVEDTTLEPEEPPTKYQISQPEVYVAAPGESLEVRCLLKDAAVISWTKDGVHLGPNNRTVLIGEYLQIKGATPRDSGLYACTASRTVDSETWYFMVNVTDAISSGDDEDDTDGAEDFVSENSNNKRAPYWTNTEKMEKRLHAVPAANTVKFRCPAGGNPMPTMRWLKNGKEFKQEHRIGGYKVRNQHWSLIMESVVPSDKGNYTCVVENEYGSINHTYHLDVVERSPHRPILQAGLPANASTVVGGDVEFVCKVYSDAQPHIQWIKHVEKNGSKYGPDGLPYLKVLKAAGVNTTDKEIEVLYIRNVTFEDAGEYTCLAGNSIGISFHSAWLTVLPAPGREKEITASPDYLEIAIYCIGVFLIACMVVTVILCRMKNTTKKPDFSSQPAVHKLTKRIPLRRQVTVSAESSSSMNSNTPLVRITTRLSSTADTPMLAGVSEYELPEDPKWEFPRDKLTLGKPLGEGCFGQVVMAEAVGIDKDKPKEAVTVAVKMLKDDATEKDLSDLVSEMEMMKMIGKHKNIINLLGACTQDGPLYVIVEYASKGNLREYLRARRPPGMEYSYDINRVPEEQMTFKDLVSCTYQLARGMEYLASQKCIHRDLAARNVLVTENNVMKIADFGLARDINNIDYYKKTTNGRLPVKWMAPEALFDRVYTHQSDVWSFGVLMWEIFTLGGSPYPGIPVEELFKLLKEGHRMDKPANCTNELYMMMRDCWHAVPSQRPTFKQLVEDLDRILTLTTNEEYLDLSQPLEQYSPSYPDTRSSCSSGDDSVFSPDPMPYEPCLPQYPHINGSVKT
UniProt P22607, whole entry, looked up: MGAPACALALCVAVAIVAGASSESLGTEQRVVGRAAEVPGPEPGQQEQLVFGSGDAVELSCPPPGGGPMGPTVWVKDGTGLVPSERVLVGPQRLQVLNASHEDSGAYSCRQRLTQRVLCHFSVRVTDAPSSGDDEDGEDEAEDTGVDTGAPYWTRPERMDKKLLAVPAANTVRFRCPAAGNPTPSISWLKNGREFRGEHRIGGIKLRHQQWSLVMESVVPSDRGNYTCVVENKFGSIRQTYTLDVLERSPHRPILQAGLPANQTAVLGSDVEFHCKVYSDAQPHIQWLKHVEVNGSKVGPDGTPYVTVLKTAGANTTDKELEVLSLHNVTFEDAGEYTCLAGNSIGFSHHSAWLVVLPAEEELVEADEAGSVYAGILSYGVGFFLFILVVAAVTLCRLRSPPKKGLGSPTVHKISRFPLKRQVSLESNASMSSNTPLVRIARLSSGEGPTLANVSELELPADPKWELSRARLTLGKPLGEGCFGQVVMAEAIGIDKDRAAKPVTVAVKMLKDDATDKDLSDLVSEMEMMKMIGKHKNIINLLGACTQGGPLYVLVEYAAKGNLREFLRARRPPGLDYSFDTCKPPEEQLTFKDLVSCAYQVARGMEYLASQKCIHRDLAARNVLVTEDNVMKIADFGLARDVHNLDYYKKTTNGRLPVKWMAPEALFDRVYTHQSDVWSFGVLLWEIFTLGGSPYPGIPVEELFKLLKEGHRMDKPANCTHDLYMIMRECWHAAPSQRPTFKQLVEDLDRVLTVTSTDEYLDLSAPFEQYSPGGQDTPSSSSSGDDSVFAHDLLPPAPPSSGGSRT
UniProt P07948: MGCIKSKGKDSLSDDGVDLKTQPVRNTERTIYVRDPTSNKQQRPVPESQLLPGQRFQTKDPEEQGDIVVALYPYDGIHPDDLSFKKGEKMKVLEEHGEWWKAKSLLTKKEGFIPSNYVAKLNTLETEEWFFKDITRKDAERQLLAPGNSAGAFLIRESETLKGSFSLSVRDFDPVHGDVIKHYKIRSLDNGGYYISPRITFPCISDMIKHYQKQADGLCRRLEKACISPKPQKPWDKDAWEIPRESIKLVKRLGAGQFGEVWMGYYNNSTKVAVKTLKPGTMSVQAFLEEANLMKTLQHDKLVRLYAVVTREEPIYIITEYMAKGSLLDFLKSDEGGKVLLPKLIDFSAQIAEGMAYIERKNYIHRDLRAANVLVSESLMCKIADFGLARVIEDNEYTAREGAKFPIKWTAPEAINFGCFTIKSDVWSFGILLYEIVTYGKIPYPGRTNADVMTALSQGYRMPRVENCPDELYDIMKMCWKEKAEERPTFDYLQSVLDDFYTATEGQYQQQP

Legend:
Assay in all cases: kinase-Nluc reporter destabilization hit call (1 = scored as downregulated) (binary); higher = compound decreases kinase abundance
Details in all cases: K562, 2-18 h
ERN1 = ERN1 (UniProt O75460)
FGR = FGR (UniProt P09769)
FLT3 = FLT3 (UniProt P36888)
GSK3A = GSK3A (UniProt P49840)
HER2 = HER2 (UniProt P04626)
INSRR = INSRR (UniProt P14616)
IRAK3 = IRAK3 (UniProt Q9Y616)
JAK1 = JAK1 (UniProt P23458)
LCK = LCK (UniProt P06239)
LIMK1 = LIMK1 (UniProt P53667)
LIMK2 = LIMK2 (UniProt P53671)
LMTK2 = LMTK2 (UniProt Q8IWU2)
MAP2K2 = MAP2K2 (UniProt P36507)
MAP4K2 = MAP4K2 (UniProt Q12851)
FGFR1 = FGFR1 (UniProt P11362)
FGFR2 = FGFR2 (UniProt P21802)
FGFR3 = FGFR3 (UniProt P22607)
FYN = FYN (UniProt P06241)
LYN = LYN (UniProt P07948)
MAP2K1 = MAP2K1 (UniProt Q02750)

Measured: kinase-Nluc reporter destabilization hit call

CC(=O)c1c(C)c2cnc(Nc3ccc(N4CCN(C(=O)CCCCCC(=O)N[C@H](C(=O)N5C[C@H](O)C[C@H]5C(=O)NCc5ccc(-c6scnc6C)cc5)C(C)(C)C)CC4)cn3)nc2n(C2CCCC2)c1=O
inactive: ERN1; 2.5 µM 0 | FGR; 2.5 µM 0 | FLT3; 2.5 µM 0 | GSK3A; 2.5 µM 0 | HER2; 2.5 µM 0 | INSRR; 2.5 µM 0 | IRAK3; 2.5 µM 0 | JAK1; 2.5 µM 0 | LCK; 2.5 µM 0 | LIMK1; 2.5 µM 0 | LIMK2; 2.5 µM 0 | LMTK2; 2.5 µM 0 | MAP2K2; 2.5 µM 0 | MAP4K2; 2.5 µM 0

C=CC(=O)Nc1cc2c(Nc3ccc(F)c(Cl)c3)ncnc2cc1OCCCN1CCOCC1 [Canertinib (dihydrochloride)]
inactive: ERN1; 2.5 µM 0 | FGFR1; 2.5 µM 0 | FGFR2; 2.5 µM 0 | FGFR3; 2.5 µM 0 | FGR; 2.5 µM 0 | FLT3; 2.5 µM 0 | FYN; 2.5 µM 0 | GSK3A; 2.5 µM 0 | INSRR; 2.5 µM 0 | IRAK3; 2.5 µM 0 | JAK1; 2.5 µM 0 | LIMK1; 2.5 µM 0 | LIMK2; 2.5 µM 0 | LMTK2; 2.5 µM 0 | LYN; 2.5 µM 0 | MAP2K1; 2.5 µM 0 | MAP2K2; 2.5 µM 0 | MAP4K2; 2.5 µM 0

Cc1ccc(Nc2nccc(N(C)c3ccc4c(C)n(C)nc4c3)n2)cc1S(N)(=O)=O [Pazopanib (Hydrochloride)]
inactive: ERN1; 10 µM 0 | FGFR2; 10 µM 0 | FGFR3; 10 µM 0 | FGR; 10 µM 0 | FLT3; 10 µM 0 | GSK3A; 10 µM 0 | HER2; 10 µM 0 | INSRR; 10 µM 0 | IRAK3; 10 µM 0 | JAK1; 10 µM 0 | LCK; 10 µM 0 | LIMK2; 10 µM 0 | LMTK2; 10 µM 0 | LYN; 10 µM 0 | MAP2K1; 10 µM 0 | MAP2K2; 10 µM 0 | MAP4K2; 10 µM 0

O=C(Nc1cccc(Nc2nccc(Nc3cccc(C(F)(F)F)c3)n2)c1)C1CC1 [Aurora kinase inhibitor-3]
inactive: ERN1; 2.5 µM 0 | FGFR1; 2.5 µM 0 | FGFR2; 2.5 µM 0 | FGFR3; 2.5 µM 0 | FGR; 2.5 µM 0 | FLT3; 2.5 µM 0 | FYN; 2.5 µM 0 | GSK3A; 2.5 µM 0 | HER2; 2.5 µM 0 | INSRR; 2.5 µM 0 | IRAK3; 2.5 µM 0 | JAK1; 2.5 µM 0 | LIMK1; 2.5 µM 0 | LIMK2; 2.5 µM 0 | LMTK2; 2.5 µM 0 | LYN; 2.5 µM 0 | MAP2K1; 2.5 µM 0 | MAP2K2; 2.5 µM 0 | MAP4K2; 2.5 µM 0

Cc1cnc(Nc2ccc(OCCN3CCCC3)cc2)nc1Nc1cccc(S(=O)(=O)NC(C)(C)C)c1 [Fedratinib (hydrochloride hydrate)]
inactive: ERN1; 2.5 µM 0 | FGFR1; 2.5 µM 0 | FGFR2; 2.5 µM 0 | FGFR3; 2.5 µM 0 | FGR; 2.5 µM 0 | FLT3; 2.5 µM 0 | GSK3A; 2.5 µM 0 | HER2; 2.5 µM 0 | INSRR; 2.5 µM 0 | IRAK3; 2.5 µM 0 | JAK1; 2.5 µM 0 | LCK; 2.5 µM 0 | LIMK1; 2.5 µM 0 | LIMK2; 2.5 µM 0 | LMTK2; 2.5 µM 0 | LYN; 2.5 µM 0 | MAP2K1; 2.5 µM 0 | MAP2K2; 2.5 µM 0 | MAP4K2; 2.5 µM 0

Cc1nc(Nc2ncc(C(=O)Nc3c(C)cccc3Cl)s2)cc(N2CCN(CCO)CC2)n1 [Dasatinib]
inactive: ERN1; 2.5 µM 0 | FGFR2; 2.5 µM 0 | FGFR3; 2.5 µM 0 | FGR; 2.5 µM 0 | FYN; 2.5 µM 0 | GSK3A; 2.5 µM 0 | HER2; 2.5 µM 0 | INSRR; 2.5 µM 0 | IRAK3; 2.5 µM 0 | JAK1; 2.5 µM 0 | LIMK1; 2.5 µM 0 | LIMK2; 2.5 µM 0 | LMTK2; 2.5 µM 0 | LYN; 2.5 µM 0 | MAP2K1; 2.5 µM 0 | MAP2K2; 2.5 µM 0 | MAP4K2; 2.5 µM 0

O=C(Nc1cccc(Cl)c1)Nc1ncc(CCNc2ncnc3ccsc23)s1 [SNS-314 (mesylate)]
inactive: ERN1; 10 µM 0 | FGFR1; 10 µM 0 | FGFR2; 10 µM 0 | FGFR3; 10 µM 0 | FGR; 10 µM 0 | FLT3; 10 µM 0 | FYN; 10 µM 0 | GSK3A; 10 µM 0 | HER2; 10 µM 0 | INSRR; 10 µM 0 | IRAK3; 10 µM 0 | JAK1; 10 µM 0 | LIMK1; 10 µM 0 | LIMK2; 10 µM 0 | LMTK2; 10 µM 0 | LYN; 10 µM 0 | MAP2K1; 10 µM 0 | MAP2K2; 10 µM 0 | MAP4K2; 10 µM 0

O=C1Cc2c([nH]c3ccc(Br)cc23)-c2ccccc2N1 [Kenpaullone]
inactive: ERN1; 10 µM 0 | FGFR1; 10 µM 0 | FGFR2; 10 µM 0 | FGFR3; 10 µM 0 | FGR; 10 µM 0 | FLT3; 10 µM 0 | FYN; 10 µM 0 | GSK3A; 10 µM 0 | HER2; 10 µM 0 | INSRR; 10 µM 0 | IRAK3; 10 µM 0 | JAK1; 10 µM 0 | LIMK1; 10 µM 0 | LIMK2; 10 µM 0 | LMTK2; 10 µM 0 | LYN; 10 µM 0 | MAP2K1; 10 µM 0 | MAP2K2; 10 µM 0 | MAP4K2; 10 µM 0

CN1CCN(c2ccc3nc(-c4c(N)c5c(F)cccc5[nH]c4=O)[nH]c3c2)CC1 [Dovitinib]
inactive: ERN1; 2.5 µM 0 | FGR; 2.5 µM 0 | FYN; 2.5 µM 0 | GSK3A; 2.5 µM 0 | HER2; 2.5 µM 0 | INSRR; 2.5 µM 0 | IRAK3; 2.5 µM 0 | JAK1; 2.5 µM 0 | LIMK1; 2.5 µM 0 | LIMK2; 2.5 µM 0 | LMTK2; 2.5 µM 0 | MAP2K1; 2.5 µM 0 | MAP2K2; 2.5 µM 0 | MAP4K2; 2.5 µM 0

Nc1nc(Nc2ccc(S(N)(=O)=O)cc2)nn1C(=O)c1c(F)cccc1F
inactive: ERN1; 2.5 µM 0 | FGFR2; 2.5 µM 0 | FGFR3; 2.5 µM 0 | FGR; 2.5 µM 0 | FLT3; 2.5 µM 0 | FYN; 2.5 µM 0 | GSK3A; 2.5 µM 0 | HER2; 2.5 µM 0 | INSRR; 2.5 µM 0 | IRAK3; 2.5 µM 0 | JAK1; 2.5 µM 0 | LCK; 2.5 µM 0 | LIMK1; 2.5 µM 0 | LIMK2; 2.5 µM 0 | LMTK2; 2.5 µM 0 | LYN; 2.5 µM 0 | MAP2K1; 2.5 µM 0 | MAP2K2; 2.5 µM 0 | MAP4K2; 2.5 µM 0
